{
  "sequences": {"note": "Chains of the proteins cited; added tags and fusions are not shown. Lines headed by an entry give the natural chain unless they say otherwise; changes in a name come on top.", "UniProt Q9BYV8": "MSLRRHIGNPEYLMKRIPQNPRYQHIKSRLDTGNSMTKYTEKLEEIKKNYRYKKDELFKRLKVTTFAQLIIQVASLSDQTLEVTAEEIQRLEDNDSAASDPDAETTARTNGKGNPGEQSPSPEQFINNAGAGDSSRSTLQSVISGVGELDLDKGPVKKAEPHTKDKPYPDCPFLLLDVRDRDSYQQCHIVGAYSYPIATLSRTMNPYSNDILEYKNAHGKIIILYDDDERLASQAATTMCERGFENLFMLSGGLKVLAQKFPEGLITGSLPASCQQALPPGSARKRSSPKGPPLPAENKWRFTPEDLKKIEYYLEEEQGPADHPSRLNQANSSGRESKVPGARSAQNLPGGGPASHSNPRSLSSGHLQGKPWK", "UniProt Q8IW35": "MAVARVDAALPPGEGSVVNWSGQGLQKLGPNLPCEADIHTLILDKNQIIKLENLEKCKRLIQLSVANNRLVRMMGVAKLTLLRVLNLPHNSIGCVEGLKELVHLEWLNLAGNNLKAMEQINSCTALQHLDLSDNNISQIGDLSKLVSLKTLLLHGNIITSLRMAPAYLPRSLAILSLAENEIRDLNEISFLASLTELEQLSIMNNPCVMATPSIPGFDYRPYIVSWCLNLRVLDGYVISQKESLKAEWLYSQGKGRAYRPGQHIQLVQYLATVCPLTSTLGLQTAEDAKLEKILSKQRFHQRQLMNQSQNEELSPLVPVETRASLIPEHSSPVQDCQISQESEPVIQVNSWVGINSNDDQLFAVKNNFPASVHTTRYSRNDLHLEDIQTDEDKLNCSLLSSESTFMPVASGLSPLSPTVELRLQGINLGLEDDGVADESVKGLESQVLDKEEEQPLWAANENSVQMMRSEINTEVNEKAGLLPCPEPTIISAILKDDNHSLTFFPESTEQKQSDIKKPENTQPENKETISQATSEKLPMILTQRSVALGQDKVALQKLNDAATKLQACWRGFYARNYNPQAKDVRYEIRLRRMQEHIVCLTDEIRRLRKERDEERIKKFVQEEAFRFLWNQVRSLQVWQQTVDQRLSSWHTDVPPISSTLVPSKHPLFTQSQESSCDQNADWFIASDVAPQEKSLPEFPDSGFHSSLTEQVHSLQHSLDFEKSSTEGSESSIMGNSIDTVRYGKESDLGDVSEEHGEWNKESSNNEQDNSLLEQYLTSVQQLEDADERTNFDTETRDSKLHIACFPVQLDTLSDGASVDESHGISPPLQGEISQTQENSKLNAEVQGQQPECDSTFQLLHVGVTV"},
  "source": "the supplement of paper PMC12067093",
  "about": "“Discovery and optimisation of a covalent ligand for TRIM25 and its application to targeted protein ubiquitination” (Chemical Science, 2025)",
  "experiment_in_all_cases": "probe-labelled cysteine peptide fold change vs DMSO (competition) (log2 fold change); higher = less target engagement (more negative = stronger competition)",
  "conditions_in_all_cases": "THP-1, incubation time: 4 h",
  "key": {"[1]": {"target": "CEP41_Q9BYV8_187_DRDSYQQCHIVGAYSYPIATLSR (UniProt Q9BYV8)"}, "[2]": {"target": "CEP97_Q8IW35_599_MQEHIVCLTDEIR (UniProt Q8IW35)"}, "[3]": {"target": "CEP97_Q8IW35_599_MQEHIVCLTDEIRR (UniProt Q8IW35)"}},
  "note": "The other results are listed elsewhere or left out.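 Further: competitive profiling in live THP-1 cells: cysteine peptides tagged with an iodoacetamide desthiobiotin (IA-DTB) probe, intensity after compound treatment relative to DMSO-treated cells.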",
  "data": [
    {"smiles": "Cc1cc(C(=O)N2CCCN(C(=O)CCl)CC2)ccc1-c1ccccc1", "note": "[compound 10]", "values": [
      {"measurement": "probe-labelled cysteine peptide fold change", "setting": "[1]; 10 µM", "result": 0.126},
      {"measurement": "probe-labelled cysteine peptide fold change", "setting": "[1]; 50 µM", "result": 0.106},
      {"measurement": "probe-labelled cysteine peptide fold change", "setting": "[2]; 10 µM", "result": -0.0881},
      {"measurement": "probe-labelled cysteine peptide fold change", "setting": "[2]; 50 µM", "result": -0.293},
      {"measurement": "probe-labelled cysteine peptide fold change", "setting": "[3]; 10 µM", "result": -0.179},
      {"measurement": "probe-labelled cysteine peptide fold change", "setting": "[3]; 50 µM", "result": -0.741}
    ]}
  ]
}
